In US20200055919A1 (ACCELERON PHARMA, published 2020):
Numbering of substitutions follows the chain as printed. Names and notes keep the numbering of the source. Results are given in words; binding and its absence hold for the method and conditions named. Some entries that bind do so weakly or less than the wild type. Tags and fused reporters may be left off the sequences shown.

Target: T1, BMP6 (UniProt P22004 382-513, limits assumed)
T1 sequence (looked up): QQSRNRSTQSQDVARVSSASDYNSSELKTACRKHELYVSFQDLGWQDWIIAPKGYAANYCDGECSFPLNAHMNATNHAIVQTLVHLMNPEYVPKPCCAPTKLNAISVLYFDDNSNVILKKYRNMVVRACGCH
Test: SPR (Biacore), 37 C

binding: binds
B1: ActRIIB-Fc:ActRIIB(L79E)-Fc heterodimer (Fc fusion)
chain 1: GRGEAETRECIYYNANWELERTNQSGLERCEGEQDKRLHCYASWRNSSGTIELVKKGCWEDDFNCYDRQECVATEENPQVYFCCCEGNFCNERFTHLPEAGGPEVTYEPPPTAPT
chain 2: B1 chain 1 with E60L
notes: also called ActRIIB-Fc:ActRIIB(L79E)-Fc heteromer; not shown: linker and engineered G1Fc; linker and complementary engineered G1Fc
